Here are results for one compound from patent US12564600B2, “System for enhancing therapeutic compliance of the anti-cancer compound E7766” (Eisai R&D Management Co., Ltd., priority 2019, dated 2026).

The structures appear in SMILES notation.

The nature of the data set: Physicochemical properties and ECCS classification of Compound 1.

In the case of `O=[P@]1(S)OC[C@H]2O[C@@H]3[C@H](F)[C@@H]2O[P@](=O)(S)OC[C@H]2O[C@H]([C@H](F)[C@@H]2O1)n1cnc2c(ncnc21)NC/C=C/CNc1ncnc2c1ncn23` [Compound 1], the “Extended Clearance Classification System class” value (concluded from review of the compound) was “Class 3B”. Moreover, under “scale of Varma et al. 2015”, the “ECCS Class” value is on record as 3B.
